For orientation: AC50 means the concentration giving half of the maximal activity seen. Read a low AC50 as greater potency.

Some of the results follow. These are further read-outs of the screen, such as a control signal, another cell line or another target. No call is given for them. Most of these compounds were active or inconclusive in the main read-out, so they are no random draw. Potencies come from curve fits of mixed quality, noted in brackets.

Cell number change and AC50 data for 58 compounds are collected here from PubChem BioAssay AID2685 (National Center for Advancing Translational Sciences (NCATS), 2010).

This assay is described as follows: qHTS Assay for Lipid Storage Modulators in Drosophila S3 Cells.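 On Cell number change: cells counted by Cell Tracker Red CMTPX staining in the red channel.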 The conditions noted are these: BODIPY lipid droplet fluorescence, 18-24 h; for cell number change: measured here: cell count max response, cells fed with added oleic acid. An outline of the steps:
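Drosophila S3 cells got compounds at several concentrations plus oleic acid (400 uM solution). Laser-scanning cytometry with 488 nm excitation read lipid droplets at 500-530 nm and cells at 575-640 nm. Percent activity was relative to 20 uM Triacsin C.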
On the technique in general: Quantitative high-throughput screening tests each substance at several concentrations.

Where [1] appears, read: measured here: lipid fluorescence (Fed channel) AC50, cells fed with added oleic acid.
[2] abbreviates: measured here: cell number channel AC50, cells fed with added oleic acid.

Regarding `CC(C)c1ccc(C2C3CSCC=C3C(C#N)=C(N)C2(C#N)C#N)cc1` (stereo not drawn), the cell number change amounted to 22%. Under setting [1], the half-maximal activity concentration (AC50) is 5.17 µM [falling, single point]. As to `CC(C)N(C(=O)C[n+]1ccc(/C=N/O)cc1)C(C)C`, the cell number change was 6.09%. Further, the AC50 under setting [1] was 7.31 µM [falling, single point]. Regarding `Cc1ccc(C2CC(c3cccs3)=NN2C(=O)CCl)cc1` (stereo not drawn), the cell number change was -24.7%. Under setting [1], the AC50 is 20.6 µM [falling, single point]. Regarding `S=C(NCCc1ccncc1)Nc1ccccc1`, the AC50 under setting [1] was 4.11 µM [falling, partial curve, poor fit].

Consider `COC(=O)c1ccc(/C=N/NC(=O)CC(=O)NCC(C)C)cc1`, for which the cell number change was determined as 19%. In addition, under setting [1], the AC50 is 29.1 µM [rising, single point]. As to `CC1Cc2ccccc2N1C(=O)CCS(=O)(=O)c1cccc2nonc12` (stereo not drawn), the cell number change turned out to be 7.71%. The AC50 under setting [1] was 16.4 µM [rising, single point]. Take `O=C(Nc1nc2ccc(S(=O)(=O)N3CCOCC3)cc2s1)c1cccs1`: the cell number change came to 20.3%. The AC50 under setting [2] was 0.0092 µM [rising, full curve, poor fit]. Take `CC(NC(=O)Cn1cc(Br)c([N+](=O)[O-])n1)c1ccccc1` (stereo not drawn): the cell number change worked out at 17.3%. Under setting [1], the AC50 was 18.4 µM [rising, single point]. As to `CCOc1ccc(C(=O)NC(=S)Nc2ccc(N3CCCCC3)cc2)cc1[N+](=O)[O-]`, the cell number change is -6.66%. The AC50 under setting [1] is 29.1 µM [falling, single point]. Regarding `CC(=O)c1ccc(NC(=O)CSc2nc(Nc3ccccc3)nc(N3CCOCC3)n2)cc1`, the cell number change is 26.1%. In addition, the AC50 under setting [2] is 6.51 µM [rising, single point]. Regarding `CC1=CC2=NC(=O)/C(=C\c3cccn3CCOc3ccc(C)c(C)c3)C(=N)N2O1`, the cell number change stood at 8.15%. The AC50 under setting [1] is 6.51 µM [rising, partial curve]. Consider `COC(=O)c1sc(NC(=O)CCCn2nc([N+](=O)[O-])cc2C)c(C(=O)OC)c1C`, for which the cell number change came out at 20.6%. Further, the AC50 under setting [1] was 1.64 µM [rising, full curve]. With `CCn1c(COc2cccc(C)c2)nnc1SCC(=O)Nc1cccc(C(=O)OC)c1`, the cell number change was -25.6%. The AC50 under setting [1] was 32.6 µM [falling, single point]. With `O=C1C2CCCCN2C(=O)N1CCCCN1CCN(c2ccc([N+](=O)[O-])cc2)CC1` (stereo not drawn), the cell number change was determined as 38.2%. For the same compound, the AC50 under setting [2] was 23.1 µM [rising, single point]. Also, under setting [1], the AC50 was 6.51 µM [rising, single point]. For `Cc1ccnc(OC(C(=O)O)C(OCc2ccccc2)(c2ccccc2)c2ccc(C(F)(F)F)cc2)n1` (stereo not drawn), the cell number change was -1.59%. Under setting [1], the AC50 was 6.51 µM [rising, partial curve, poor fit].

For the compound `Cn1c(=O)[nH]c(=O)c2c1nc(NC1CCCC1)n2Cc1ccccc1`, the cell number change stood at 20.5%. As to `O=C(Nc1ccc(Cl)c(S(=O)(=O)N2CCOCC2)c1)[C@@H]1CCCN1C(=O)c1cccs1`, the cell number change came to 6.22%. In the case of `CCN(C(=O)Cn1cc(C(F)(F)F)ccc1=O)c1c(N)n(Cc2ccccc2)c(=O)[nH]c1=O`, the cell number change is -28.6%. Further, the AC50 under setting [1] is 0.58 µM [rising, single point]. Take `Fc1cccc(Cl)c1-c1nnc2ccc(N3CCOCC3)nn12`: the cell number change was -9.43%. In addition, the concentration at half-maximal activity (AC50) under setting [1] was 0.0206 µM [falling, full curve, poor fit]. In the case of `O=C(O)c1cccc(S(=O)(=O)Nc2ccc3[nH]c(=O)[nH]c3c2)c1`, the cell number change was -19.5%. The AC50 under setting [1] is 0.651 µM [falling, full curve]. Turning to `CC(NC(=O)CCC(=O)N1CCN(S(=O)(=O)c2ccc(Cl)cc2)CC1)c1ccccc1` (stereo not drawn), the cell number change is -5.62%. For `O=C(NNc1nc2cc3c(cc2s1)OCCO3)c1ccc(F)cc1`, the cell number change was 33.9%. Also, under setting [1], the half-maximal activity concentration (AC50) was 29.1 µM [rising, single point]. Take `Cc1ccc(COC(=O)c2cc([N+](=O)[O-])ccc2N2CCOCC2)cc1`: the cell number change amounted to 33.7%. In addition, under setting [1], the AC50 was 5.62 µM [rising, single point]. Consider `O=C(NCc1ccccc1Cl)C1CCN(S(=O)(=O)c2cccc3nonc23)CC1`, for which the cell number change was 119%. Moreover, the AC50 under setting [2] was 29.1 µM [rising, single point]. `C=CCn1c(C)nnc1SCC(=O)c1[nH]c(C)c(C(C)=O)c1C`: the cell number change is 38.3%. The half-maximal activity concentration (AC50) under setting [2] was 1.84 µM [rising, full curve]. The AC50 under setting [1] is 0.731 µM [rising, full curve]. In the case of `O=C(Nc1ccccc1C(=O)O)c1cccc(NC(=O)c2ccccc2Cl)c1`, the cell number change is -5.47%. Besides, under setting [1], the AC50 is 0.58 µM [falling, single point]. Take `Cc1noc(C)c1CSCC(=O)Nc1ccc(OC(F)F)c(Cl)c1`: the cell number change is -50%. For the same compound, the AC50 under setting [2] was 0.651 µM [rising, full curve]. Consider `Cc1ccc(-n2c(SCC(=O)Nc3ccc4cn[nH]c4c3)nnc2-c2ccco2)cc1`, for which the cell number change was -55.4%. Moreover, under setting [2], the AC50 is 20.6 µM [falling, partial curve]. For the same compound, the AC50 under setting [1] is 0.651 µM [rising, partial curve, poor fit].

Turning to `O=S(=O)(c1ccc(Br)cc1)N1CCCN(Cc2cccc(F)c2)CC1`, the cell number change was -8.22%. The AC50 under setting [1] is 0.00461 µM [falling, full curve, poor fit]. As to `CCn1c(Cc2cccs2)nnc1SCC(=O)NC1CC1`, the half-maximal activity concentration (AC50) under setting [1] is 23.1 µM [rising, partial curve].

For the compound `CCOC(=O)CCN(Cc1cccs1)S(=O)(=O)c1ccc(F)cc1`, the cell number change came out at 17.5%. Further, under setting [1], the AC50 is 0.103 µM [rising, partial curve, poor fit]. Consider `COC(=O)c1ccc(CNC(=O)COC(=O)CC23CC4CC(CC(Br)(C4)C2)C3)cc1`, for which the AC50 under setting [1] is 6.51 µM [falling, partial curve, poor fit]. As to `CCOc1ccc(NC(=O)CSc2nnc(C3CC3)n2N)cc1`, the cell number change stood at 33.7%. For the same compound, the AC50 under setting [2] was 25.9 µM [rising, single point].

With `Cc1ccc(S(=O)(=O)Nc2ccc(S(=O)(=O)Nc3nccs3)cc2)c([N+](=O)[O-])c1`, the cell number change is 112%. Besides, the AC50 under setting [2] was 14.6 µM [rising, partial curve]. Under setting [1], the AC50 is 29.1 µM [rising, single point]. Turning to `Cc1ccc2c(c1)nnn2C1CCN(S(=O)(=O)c2ccc(C(=O)NC3CCCC3)cc2)CC1`, the cell number change came to 24.5%. Besides, under setting [2], the AC50 was 2.06 µM [rising, partial curve]. For `CCCCNC(=O)C1CCN(C(=O)C2CCN(S(=O)(=O)c3ccc(C)cc3)CC2)CC1`, the cell number change was -9.43%. The AC50 under setting [1] was 6.51 µM [falling, partial curve, poor fit].

For `C/C=C/C(=O)NCCc1ccc(OC)c(OC)c1`, the cell number change is -7.73%. Also, the half-maximal activity concentration (AC50) under setting [2] is 2.06 µM [falling, partial curve, poor fit]. For the compound `COc1ccc(Cl)cc1NC(=O)C(C)OC(=O)c1ccc(NS(=O)(=O)c2ccc3[nH]c(=O)[nH]c3c2)cc1` (stereo not drawn), the cell number change came out at 1.99%. For the same compound, the AC50 under setting [1] is 16.4 µM [rising, partial curve]. For the compound `COC(=O)c1cscc1S(=O)(=O)Cc1ccccc1`, the cell number change turned out to be 14.2%. As for `CC(NC(=O)CNC(=O)[C@@H]1Cc2ccccc2CN1)c1ccccc1` (stereo partly drawn), the cell number change stood at 14.1%. With `CN(CC(=O)Nc1ccc(F)cc1)C(=O)c1cc(-c2cccs2)nn1-c1ccccc1`, the cell number change was determined as 58.2%. Further, the AC50 under setting [2] was 16.4 µM [rising, single point]. In addition, the AC50 under setting [1] was 0.0058 µM [rising, full curve, poor fit]. As for `CC(C(=O)N1CCN(c2ccc([N+](=O)[O-])cc2)CC1)N1C(=O)C2CC=CCC2C1=O` (stereo not drawn), the cell number change worked out at 7.5%. The AC50 under setting [1] was 0.1 µM [rising, full curve, poor fit].

Regarding `Cc1c(NC(=O)c2csc3c2CCCC3)c(=O)n(-c2ccccc2)n1C`, the cell number change is 17%. Also, under setting [1], the AC50 is 6.51 µM [rising, single point].

As to `O=C(NCc1ccccc1Cl)c1ccc(S(=O)(=O)NCc2ccco2)cc1`, the AC50 under setting [2] was 7.31 µM [rising, single point]. With `Cc1ccc(NC(=O)C2CCCN(S(=O)(=O)c3cccnc3)C2)c(C)c1` (stereo not drawn), the cell number change was found to be 20.2%. Moreover, the concentration at half-maximal activity (AC50) under setting [1] was 0.651 µM [rising, full curve, poor fit]. In the case of `COCCN(Cc1cc2cc3c(cc2nc1Cl)OCO3)C(=O)Nc1ccc(F)cc1`, the half-maximal activity concentration (AC50) under setting [1] was 1.84 µM [rising, partial curve]. For `CNC(=O)c1ccc(-c2ccccc2)s1`, the cell number change stood at 12.4%. The AC50 under setting [1] is 29.1 µM [rising, single point].

`CCOC(=O)c1ccc(NC(=O)CSc2ccc(-c3cccnc3)nn2)cc1`: the cell number change was -29.6%. Under setting [1], the AC50 is 18.4 µM [falling, single point].

`CCCCSc1nnc(-c2ccc(C)cc2)c2ccccc12`: the cell number change is -55.1%. Under setting [2], the AC50 is 23.1 µM [falling, single point]. Consider `O=C(OCC#CCSc1nnc(-c2cccc3ccccc23)s1)c1cccs1`, for which the cell number change worked out at 53.6%. For the same compound, the AC50 under setting [2] is 29.1 µM [rising, single point]. In addition, the AC50 under setting [1] was 25.9 µM [rising, partial curve].

Take `CC(C)NS(=O)(=O)c1ccc(OCC(=O)N2CCN(c3ccccc3)CC2)cc1`: the cell number change was -1.49%. Moreover, the AC50 under setting [1] was 0.461 µM [falling, partial curve, poor fit].

Turning to `CC(C)NC(=O)c1sc2nc3c(c(-c4cccs4)c2c1N)CN(C)CC3`, the AC50 by setting is: under setting [2], 1.84 µM [rising, partial curve, poor fit]; under setting [1], 6.51 µM [rising, partial curve]. For `COCCn1c(C)cc(C(=O)COC(=O)c2c(C)nn(Cc3ccccc3)c2C)c1C`, the cell number change is -14.1%. In addition, under setting [1], the AC50 was 29.1 µM [rising, single point]. Regarding `CCc1ccc2nc(NC(=O)c3ccc4c(=O)[nH]c(CN5CCOCC5)nc4c3)sc2c1`, the cell number change was found to be 9.03%. Moreover, the AC50 under setting [2] was 0.651 µM [rising, full curve, poor fit]. Consider `COc1ccc2c(C=Nc3c(C)n(C)n(-c4ccccc4)c3=O)c(O)n(Cc3ccco3)c(=O)c2c1`, for which the cell number change is -18.7%. As to `C[C@H](NC(=O)c1[nH]cnc1C(=O)Nc1cccc(Cl)c1)c1ccccc1`, the cell number change is -31.1%. Also, the concentration at half-maximal activity (AC50) under setting [2] is 8.2 µM [falling, single point]. Moreover, the AC50 under setting [1] was 18.4 µM [falling, single point]. In the case of `Nc1n[nH]c(N)c1N=Nc1ccc(Cl)cc1`, the cell number change is -11.4%. In addition, the AC50 under setting [1] was 16.4 µM [falling, single point]. Regarding `CCCNC(=O)Cn1c(=O)/c(=C\c2ccc(-c3ccc([N+](=O)[O-])cc3)o2)s/c1=C\C(=O)C(C)(C)C`, the cell number change was -89.7%. Further, under setting [2], the AC50 is 5.17 µM [falling, full curve]. Besides, the AC50 under setting [1] is 0.291 µM [falling, full curve].
